From patent US20210322508A1, “PEPTIDES AND COMPOSITIONS FOR TARGETED TREATMENT AND IMAGING” (SIGNABLOK, INC., priority 2018, published 2021)
Entries after “also recorded” stand apart in the source; their conditions may differ. At least one peptide structure holds a part that was inferred or is arguable (an end, a ring closure or a residue). Residues, ends and D or L forms follow the SMILES beside them.

The chains behind the UniProt entries cited, without tags or fusion partners. Residues count along the entry.
UniProt Q9JKE2, 21-230: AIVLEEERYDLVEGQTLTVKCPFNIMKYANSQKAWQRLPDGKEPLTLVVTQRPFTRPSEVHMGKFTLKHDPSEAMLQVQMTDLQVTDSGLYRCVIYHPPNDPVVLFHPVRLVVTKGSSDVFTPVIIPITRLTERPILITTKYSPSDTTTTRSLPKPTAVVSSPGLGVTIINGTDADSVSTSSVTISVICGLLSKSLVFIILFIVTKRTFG

How the values were obtained:
[1] = test system: mice with collagen-induced arthritis (CIA); assay: collagen-induced arthritis (CIA) in mice
From the text: As described herein, starting on day 24 after immunization, mice with CIA were intraperitoneally (i.p.) administered daily for 14 consecutive days with vehicle (black diamonds), dexamethasone (black squares), GF9 (white circles), GF9-LPC (black circles) and GA/E31-LPC (half black half white circles) at indicated doses. Daily clinical scores were given on a scale of 0-5 for each of the paws on days 24-38. On day 38, mice were killed and the histopathological examination of mouse joints was performed. Histopathological scores of inflammation (I), pannus (P), cartilage damage (CD), bone resorption (BR) and periosteal new bone formation (PBF) are shown. Summed histopathology scores were calculated as the sum of all five histopathological parameters. All results are expressed as the mean±SEM (n=10 mice per group).
Mouse body weight (BW) was measured every other day from day 24 to day 38. Mean BW changes were calculated as a percentage of the difference between beginning (day 24) and final (day 38) BWs of the CIA mice intraperitoneally (i.p.) treated daily for 14 consecutive days with vehicle, dexamethasone, GF9, GF9-LPC and GA/E31-LPC at indicated doses. All results are expressed as the mean±SEM (n=10 mice per group).
Plasma was collected on days 24, 30 and 38 from arthritic mice treated with vehicle (black diamonds), GF9 (white circles), GF9-LPC (black circles) and GA/E31-LPC (half black half white circles). Plasma samples were analyzed for concentrations of interleukin-1b (IL-1b), IL-6, and colony-stimulating factor 1 (CSF1). Results are expressed as the mean±SEM (n=5 mice per group).

AsPC-1 xenograft tumors = assay: AsPC-1 pancreatic cancer xenograft tumor growth in nude mice; type: in vivo, human; conditions: 25 mg/kg i.p. daily 5qw, final day of treatment (31 days)
BxPC-3 xenograft tumors = assay: BxPC-3 pancreatic cancer xenograft tumor growth in nude mice; type: in vivo, human; conditions: 25 mg/kg i.p. daily 5qw, final day of treatment (29 days)
[2] = test system: TNF-alpha, IL-1beta and IL-6; assay: LPS-induced endotoxemia: in vivo serum cytokine release; set-up: species or system mouse; conditions: free or SLP-bound form; serum 90 min after 30 mg/kg LPS
Protocol: One hour later, mice received i.p. injection of 30 mg/kg LPS from E. coli 055:B5 (Sigma). In some experiments, all formulations were i.p. administered 1 and 3 h after LPS injection. The viability of mice was examined hourly. Body weights were measured daily. In all of the animal experiments, blood samples were collected via a sub-mandibular (cheek) bleed at 90 min after administration of LPS. Statistical analysis of survival curves was performed by the Kaplan-Meier test. Comparisons were made using two-tailed Student's t test. The production of cytokines in serum was measured by a standard sandwich cytokine ELISA procedure using TNF-alpha, IL-1beta and IL-6 ELISA kits (Pierce Biotechnology, Thermo Scientific, Rockford, Ill.) according to the instructions of the manufacturer. Statistical significances in cytokine analysis ELISA data were determined by two-tailed Student's t test.
Naïve, female C57BL/6 mice at 8 to 10 weeks of age (18 to 21 g) from the Jackson Laboratory were randomly grouped (10 mice per group) and i.p. injected with vehicle or the indicated doses of dexamethasone (DEX), GF9, G-TE21, G-HV21 and G-KV21. One hour later, mice received i.p. injection of 30 mg/kg LPS from E. coli 055:B5 (Sigma). […] Body weights were measured daily. […] Statistical significances in cytokine analysis ELISA data were determined by two-tailed Student's t test.

[3] = test system: C57BL/6 mice with DSS-induced colitis / AOM-DSS tumors; assay: DSS-induced colitis and colitis-associated tumorigenesis; type: in vivo, mouse; conditions: free and SLP-bound form
TREM-1 = target: T1, TREM-1 (Mus musculus, UniProt Q9JKE2); assay: Immunofluorescence colocalization with TREM-1 in the cell membrane; type: cell-based; conditions: J774A.1; 6 h; Dylight 488-labeled free GF9 or SLP-delivered GE31
T1 construct: endogenous in cells; host or cells: BALB/c murine macrophage cell line J774A.1 (ATCC)
Protocol: BALB/c murine macrophage J774A.1 cells were obtained from ATCC (Manassas, Va.) and cultured according to manufacturer's instructions at 37° C. in 6-well tissue culture plates containing glass coverslips until reaching about 50% confluency. Then, cells were incubated for 6 h at 37° C. either with rho B-labeled GF9-SLP that contained Dylight labeled GF9 or TREM-1/TRIOPEP-sSLP that contained Dylight 488-labeled GE31. In colocalization experiments, TREM-1 staining was performed using an Alexa 647-labeled rat anti-mouse TREM-1 antibody (Bio-Rad, Hercules, Calif.) as described in Shen and Sigalov. J Cell Mol Med 2017, 21:2524-2534. Coverslips were mounted using Prolong Gold anti-fade DAPI (4′,6-diamidino-2-phenylindole) mounting medium and photographed using an Olympus BX60 fluorescence microscope. Confocal imaging was performed using a Leica TCS SP5 II laser scanning confocal microscope as described in Shen and Sigalov. J Cell Mol Med 2017, 21:2524-2534.
BALB/c murine macrophage J774A.1 cells were grown at 37° C. in six-well tissue culture plates containing glass coverslips. […] ProLong Gold Antifade DAPI (4′,6′-diamidino-2-phenylindole) mounting medium was used to mount coverslips, and the slides were photographed using an Olympus BX60 fluorescence microscope. […]

In the case of `CC(C)C[C@H](NC(=O)[C@H](Cc1ccccc1)NC(=O)CN)C(=O)N[C@@H](CO)C(=O)N[C@@H](CCCCN)C(=O)N[C@@H](CO)C(=O)N[C@@H](CC(C)C)C(=O)N[C@H](C(=O)N[C@@H](Cc1ccccc1)C(=O)O)C(C)C` [GF9] (H-GFLSKSLVF-OH), the joint histopathology ([1]; day 38) was “prevents pathological appearances; also recorded: reduces synovial inflammation and protects against bone and cartilage damage”, the “plasma/serum cytokines (IL-1b, IL-6, CSF1; TNFa)” value ([1]; days 24, 30 and 38) was “reduces plasma cytokines; also recorded: inhibit production of cytokines and M-CSF” and the “arthritis (clinical arthritis score)” value ([1]; treatment days 24-38) was “ameliorates arthritis; also recorded: suppresses arthritis as effectively as dexamethasone (DEX); also recorded: ameliorate the disease”. The “% T/C” value (AsPC-1 xenograft tumors) was 56 % T/C, the “% T/C” value (BxPC-3 xenograft tumors) was 41 % T/C and the “LPS-stimulated cytokine production in vivo” value [2] was “inhibit LPS-stimulated cytokine production in vivo”. For the same compound, the “development of inflammation and tumor within the colon” value [3] was “anticipated to ameliorate the development of inflammation and tumor within the colon”, the “intestinal epithelial proliferation in DSS-induced colitis” value [3] was “anticipated to decrease intestinal epithelial proliferation in DSS-induced colitis” and the “self-insertion into the cell membrane and colocalization with TREM-1” value (TREM-1) was “self-inserts into the cell membrane from the outside the cell and colocalizes with TREM-1”.
